Results from the supplement of paper PMC10689618.
This is one part of the list. Many values rest on one well or one pass, so single values are uncertain.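 Primary human fetal astrocytes engulfed labelled rat cortical synaptosomes, measured as a red/green ratio corrected for calcein live-cell signal and scaled to the plate median. Toxicity meant calcein falling over 30%; decreased phagocytosis meant below 70% of median above 5 µM.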

tested on: Human fetal astrocytes; assay: loss of total cells relative to no-compound high-control median (toxicity); higher = more toxic (fewer cells); details: 1.39 µM; 24 h

| SMILES | loss of total cells [%] |
| --- | --- |
| CN(C)CCc1c[nH]c2ccc(Cn3cncn3)cc12 | -46 |
| O=Cc1ccccc1O[C@@H]1O[C@H](CO)[C@@H](O)[C@H](O)[C@H]1O | -16.4 |
| CS(=O)(=O)OCCCCOS(C)(=O)=O [GT 41 X 149 Mablin CB 2041 G.T. 41 GT 2041 Mileran Myleran] | -17.4 |
| C1CCC(C(CC2CCCCN2)C2CCCCC2)CC1 (stereo not drawn) | -39.5 |
| NCCC(=O)c1ccccc1N | -28.7 |
| Nc1ccc(S(=O)(=O)Nc2ncccn2)cc1 | -2.1 |
| CNc1ccccc1C(=O)N1CCc2c([nH]c3ccccc23)C1=O | -26.2 |
| CN(C)CCOC(=O)C(c1ccccc1)C1(O)CCCC1 (stereo not drawn) | -13.4 |
| CC(C)/C(O)=C1/C(=O)O[C@@H](c2ccoc2)[C@]2(C)C(O)[C@@H](O)[C@@]34OC5(C)OC67CC(C)(C(O)[C@]6(O)[C@@H](O)[C@]3(O5)C12)[C@H](CC(=O)O)[C@]74C (stereo partly drawn) | 6.2 |
| CC1Cc2ccccc2N1NC(=O)c1ccc(Cl)c(S(N)(=O)=O)c1 (stereo not drawn) | 6.2 |
| O=C(/C=C/C=C/c1ccc2c(c1)OCO2)N1CCCCC1 | -15.1 |
| C1N2CN3CN1CN(C2)C3 | -8 |
| CC1(C)[C@@H](O)CC[C@]2(C)[C@H]3C(=O)C=C4[C@H]5C[C@@](C)(C(=O)O)CC[C@]5(C)CC[C@@]4(C)[C@]3(C)CC[C@@H]12 [18alpha-GLYCYRRHETINIC ACID] | -9 |
| COc1ccc([C@H]2Oc3cc(OC)cc(OC)c3C[C@H]2O)cc1 | -9.8 |
| O=c1[nH]cnc2nc[nH]c12 | -2.5 |
| CC[C@H]1OC(=O)C[C@@H](O)[C@H](C)[C@@H](O[C@@H]2O[C@H](C)[C@@H](O)[C@H](N(C)C)[C@H]2O)[C@@H](CCN2C[C@H](C)C[C@H](C)C2)C[C@@H](C)C(=O)/C=C/C(C)=C/[C@@H]1CO[C@@H]1O[C@H](C)[C@@H](O)[C@@H](OC)[C@H]1OC | -36.3 |
| C[C@H]1O[C@@H](O[C@H]2[C@@H](O)C[C@H](O[C@H]3[C@@H](O)C[C@H](O[C@H]4CC[C@@]5(C)[C@H](CC[C@@H]6[C@@H]5C[C@@H](O)[C@]5(C)[C@@H](C7=CC(=O)OC7)CC[C@]65O)C4)O[C@@H]3C)O[C@@H]2C)C[C@H](O)[C@@H]1O | 36.5 |
| CCCCOC(=O)c1ccc(O)cc1 | 33.7 |
| COc1ccc(/C=C/C(=O)O)cc1OC | -9.8 |
| Cc1cc(-n2c(=O)[nH]c(=O)n(C)c2=O)ccc1Oc1ccc(SC(F)(F)F)cc1 | -35.5 |

| SMILES | loss of total cells [%] |
| --- | --- |
| COc1ccc(-c2cc(=O)c3c(O)c(OC)c(OC)c(OC)c3o2)cc1 | -26.2 |
| COc1ccc2oc3ccccc3c(=O)c2c1 | 6.9 |
| Cc1cc2nc3c(=O)[nH]c(=O)nc-3n(C[C@H](O)[C@H](O)[C@H](O)CO)c2cc1C | -7.5 |
| C#C[C@]1(OC(C)=O)CC[C@H]2[C@@H]3CCC4=C[C@@H](OC(C)=O)CC[C@@H]4[C@H]3CC[C@@]21C | -18.5 |
| NCCCC(=O)O | 17 |
| CCCCS(=N)(=O)CCC(N)C(=O)O (racemic) [DL-Buthionine-[S,R]-sulfoximine] | -14.8 |
| CC(=O)O[C@@H]1CC(=O)[C@@]2(C)C(CC(=O)[C@]3(C)C2CC[C@@]2(C)[C@H](c4ccoc4)OC(=O)C4OC423)C1(C)C (stereo partly drawn) | -11.2 |
| COc1cc(C(C)=O)cc(OC)c1O | 16.2 |
| NCC(O)CC(=O)O (stereo not drawn) | 9.7 |
| CC(=O)O[C@H]1CC[C@@]2(C)C(=CC=C3[C@@H]4CC[C@H]([C@H](C)/C=C/[C@H](C)C(C)C)[C@@]4(C)CC[C@@H]32)C1 | -18.5 |
| C[C@H](CCC(=O)O)[C@H]1CC[C@H]2[C@@H]3[C@H](O)C[C@@H]4C[C@H](O)CC[C@]4(C)[C@H]3CC[C@]12C | -5.6 |
| CC(=O)[C@@]1(O)CC[C@H]2[C@@H]3C=C(Cl)C4=CC(=O)[C@@H]5C[C@@H]5[C@]4(C)[C@H]3CC[C@@]21C | 3.2 |
| COc1cc(-c2cc(=O)c3c(O)c(OC)c(OC)c(OC)c3o2)cc(OC)c1OC | -16.4 |
| OC[C@H]1O[C@@H](n2cnc3c(NCc4ccco4)ncnc32)[C@H](O)[C@@H]1O | -11.5 |
| C=C1C2CC[C@@]3(C)[C@H](c4ccoc4)OC(=O)C[C@]13O[C@H]1CC(=O)C(C)(C)[C@H](C(O)C(=O)OC)[C@@]21C (stereo partly drawn) | -24.3 |
| CCN(CC)Cc1cc(Nc2ccnc3cc(Cl)ccc23)ccc1O | 5.8 |
| COc1ccc(-c2cc(=O)c3c(OC)cc(OC)cc3o2)cc1 | -26.2 |
| Cc1cc(=O)n(-c2ccccc2)n1C | 2.5 |
| COc1ccc(-c2cc(=O)c3c(O)cc(O)cc3o2)cc1 | -8.3 |

same assay, conditions: 2.78 µM; 24 h

| SMILES | loss of total cells [%] |
| --- | --- |
| CN(C)CCc1c[nH]c2ccc(Cn3cncn3)cc12 | -40.5 |
| O=Cc1ccccc1O[C@@H]1O[C@H](CO)[C@@H](O)[C@H](O)[C@H]1O | -8.3 |
| CS(=O)(=O)OCCCCOS(C)(=O)=O [GT 41 X 149 Mablin CB 2041 G.T. 41 GT 2041 Mileran Myleran] | -10.7 |
| C1CCC(C(CC2CCCCN2)C2CCCCC2)CC1 (stereo not drawn) | 36.5 |
| NCCC(=O)c1ccccc1N | 2.5 |
| Nc1ccc(S(=O)(=O)Nc2ncccn2)cc1 | -28.8 |
| CNc1ccccc1C(=O)N1CCc2c([nH]c3ccccc23)C1=O | -6.1 |
| CN(C)CCOC(=O)C(c1ccccc1)C1(O)CCCC1 (stereo not drawn) | -24.7 |
| CC(C)/C(O)=C1/C(=O)O[C@@H](c2ccoc2)[C@]2(C)C(O)[C@@H](O)[C@@]34OC5(C)OC67CC(C)(C(O)[C@]6(O)[C@@H](O)[C@]3(O5)C12)[C@H](CC(=O)O)[C@]74C (stereo partly drawn) | -6 |
| CC1Cc2ccccc2N1NC(=O)c1ccc(Cl)c(S(N)(=O)=O)c1 (stereo not drawn) | -3.1 |
| O=C(/C=C/C=C/c1ccc2c(c1)OCO2)N1CCCCC1 | 0.3 |
| C1N2CN3CN1CN(C2)C3 | -4.4 |
| CC1(C)[C@@H](O)CC[C@]2(C)[C@H]3C(=O)C=C4[C@H]5C[C@@](C)(C(=O)O)CC[C@]5(C)CC[C@@]4(C)[C@]3(C)CC[C@@H]12 [18alpha-GLYCYRRHETINIC ACID] | -10.5 |
| COc1ccc([C@H]2Oc3cc(OC)cc(OC)c3C[C@H]2O)cc1 | 6 |
| O=c1[nH]cnc2nc[nH]c12 | -6.1 |
| CC[C@H]1OC(=O)C[C@@H](O)[C@H](C)[C@@H](O[C@@H]2O[C@H](C)[C@@H](O)[C@H](N(C)C)[C@H]2O)[C@@H](CCN2C[C@H](C)C[C@H](C)C2)C[C@@H](C)C(=O)/C=C/C(C)=C/[C@@H]1CO[C@@H]1O[C@H](C)[C@@H](O)[C@@H](OC)[C@H]1OC | -28.6 |
| C[C@H]1O[C@@H](O[C@H]2[C@@H](O)C[C@H](O[C@H]3[C@@H](O)C[C@H](O[C@H]4CC[C@@]5(C)[C@H](CC[C@@H]6[C@@H]5C[C@@H](O)[C@]5(C)[C@@H](C7=CC(=O)OC7)CC[C@]65O)C4)O[C@@H]3C)O[C@@H]2C)C[C@H](O)[C@@H]1O | 24.7 |
| CCCCOC(=O)c1ccc(O)cc1 | 4.7 |
| COc1ccc(/C=C/C(=O)O)cc1OC | 17.9 |
| Cc1cc(-n2c(=O)[nH]c(=O)n(C)c2=O)ccc1Oc1ccc(SC(F)(F)F)cc1 | -10.3 |

| SMILES | loss of total cells [%] |
| --- | --- |
| COc1ccc(-c2cc(=O)c3c(O)c(OC)c(OC)c(OC)c3o2)cc1 | 9.7 |
| COc1ccc2oc3ccccc3c(=O)c2c1 | 8.3 |
| Cc1cc2nc3c(=O)[nH]c(=O)nc-3n(C[C@H](O)[C@H](O)[C@H](O)CO)c2cc1C | -25.3 |
| C#C[C@]1(OC(C)=O)CC[C@H]2[C@@H]3CCC4=C[C@@H](OC(C)=O)CC[C@@H]4[C@H]3CC[C@@]21C | -3.3 |
| NCCCC(=O)O | 15.5 |
| CCCCS(=N)(=O)CCC(N)C(=O)O (racemic) [DL-Buthionine-[S,R]-sulfoximine] | -14.8 |
| CC(=O)O[C@@H]1CC(=O)[C@@]2(C)C(CC(=O)[C@]3(C)C2CC[C@@]2(C)[C@H](c4ccoc4)OC(=O)C4OC423)C1(C)C (stereo partly drawn) | -15.9 |
| COc1cc(C(C)=O)cc(OC)c1O | 15.5 |
| NCC(O)CC(=O)O (stereo not drawn) | 6.9 |
| CC(=O)O[C@H]1CC[C@@]2(C)C(=CC=C3[C@@H]4CC[C@H]([C@H](C)/C=C/[C@H](C)C(C)C)[C@@]4(C)CC[C@@H]32)C1 | 0 |
| C[C@H](CCC(=O)O)[C@H]1CC[C@H]2[C@@H]3[C@H](O)C[C@@H]4C[C@H](O)CC[C@]4(C)[C@H]3CC[C@]12C | 3.7 |
| CC(=O)[C@@]1(O)CC[C@H]2[C@@H]3C=C(Cl)C4=CC(=O)[C@@H]5C[C@@H]5[C@]4(C)[C@H]3CC[C@@]21C | 24.2 |
| COc1cc(-c2cc(=O)c3c(O)c(OC)c(OC)c(OC)c3o2)cc(OC)c1OC | -6.9 |
| OC[C@H]1O[C@@H](n2cnc3c(NCc4ccco4)ncnc32)[C@H](O)[C@@H]1O | -9.7 |
| C=C1C2CC[C@@]3(C)[C@H](c4ccoc4)OC(=O)C[C@]13O[C@H]1CC(=O)C(C)(C)[C@H](C(O)C(=O)OC)[C@@]21C (stereo partly drawn) | 4.7 |
| CCN(CC)Cc1cc(Nc2ccnc3cc(Cl)ccc23)ccc1O | -22.3 |
| COc1ccc(-c2cc(=O)c3c(OC)cc(OC)cc3o2)cc1 | -6.1 |
| Cc1cc(=O)n(-c2ccccc2)n1C | -9.5 |
| COc1ccc(-c2cc(=O)c3c(O)cc(O)cc3o2)cc1 | 0.7 |
